Measurements reported in ChEMBL document CHEMBL5365451, “Discovery of CVN417, a Novel Brain-Penetrant α6-Containing Nicotinic Receptor Antagonist for the Modulation of Motor Dysfunction” (J Med Chem, 2023).
≈ marks a conversion by molar mass, not a printed value.

Assay: Aqueous solubility of the compound at pH 7.4
Details: buffer

Compound: COc1ccc(-c2cc(C(=O)N[C@H]3CCCN(C)C3)nn2C)c(Cl)c1
- solubility: 288 µM (≈ 105 µg/mL)
